Part of at least one peptide drawing is inferred or uncertain, most often the ends. Where a SMILES comes first, the peptide text is derived from it. Where no end group is shown, it is not given here. [ ]: non-standard residue; d: D form. pT = C[C@@H](OP(=O)(O)O)[C@H](N)C(=O)O
Key:
[1] = molecular target: T1, NoxA1 activation domain (AD) peptide LEPMDFLGKAKVV (Homo sapiens, UniProt Q86UR1); experiment: Isothermal titration calorimetry peptide interaction; assay type: binding; settings: ITC, 25° C.
T1 construct: purchased ProImmune
Method: The affinity of the interaction between non-phosphorylated and phosphorylated Nox1 and NoxA1 was determined by isothermal titration calorimetry (ITC). Phosphorylated or non-phosphorylated peptides corresponding to amino acids KLKTQKIYF (SEQ ID NO:9) of Nox1 and a peptide corresponding to amino acids LEPMDFLGKAKVV (SEQ ID NO:10) of NoxA1 peptides were purchased from ProImmune. The peptides were resuspended in 20 mM Na2HPO4, 100 mM […], pH 7.4 to a final concentration of 800 μM (Nox1) and 20 μM (NoxA1). The peptides were degassed and ITC measurements recorded using a MicroCal VP-ITC System (GE Healthcare). 21 injections of Nox1 peptides into NoxA1 peptide were used, with 240 s spacing between events. The chamber was kept under constant stirring at 350 rpm and all experiments were performed at 25° C. […] The constant heat of dilution, as determined by the average of the last 3-5 injections, was subtracted and the data are analyzed using the single site binding model provided in the ITC analysis package. The values for affinity and stoichiometry from three experiments were averaged and shown±standard deviation.

Amino acid sequences for entries named in this document (tags omitted). A change or cut given only in a name is not applied to a line headed by its entry.
UniProt Q86UR1: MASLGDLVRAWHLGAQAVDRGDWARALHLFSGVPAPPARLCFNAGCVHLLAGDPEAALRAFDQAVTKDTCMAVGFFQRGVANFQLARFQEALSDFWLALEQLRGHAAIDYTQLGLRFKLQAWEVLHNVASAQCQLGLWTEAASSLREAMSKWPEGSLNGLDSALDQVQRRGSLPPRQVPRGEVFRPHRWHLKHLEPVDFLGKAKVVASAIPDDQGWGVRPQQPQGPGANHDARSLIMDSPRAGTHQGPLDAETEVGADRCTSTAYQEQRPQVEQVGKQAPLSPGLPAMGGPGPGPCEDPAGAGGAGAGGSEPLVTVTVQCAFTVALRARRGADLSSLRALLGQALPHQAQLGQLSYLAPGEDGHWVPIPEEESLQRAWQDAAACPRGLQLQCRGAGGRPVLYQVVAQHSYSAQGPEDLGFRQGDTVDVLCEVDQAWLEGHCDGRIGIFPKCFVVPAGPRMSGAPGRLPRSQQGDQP
UniProt P05771, whole entry: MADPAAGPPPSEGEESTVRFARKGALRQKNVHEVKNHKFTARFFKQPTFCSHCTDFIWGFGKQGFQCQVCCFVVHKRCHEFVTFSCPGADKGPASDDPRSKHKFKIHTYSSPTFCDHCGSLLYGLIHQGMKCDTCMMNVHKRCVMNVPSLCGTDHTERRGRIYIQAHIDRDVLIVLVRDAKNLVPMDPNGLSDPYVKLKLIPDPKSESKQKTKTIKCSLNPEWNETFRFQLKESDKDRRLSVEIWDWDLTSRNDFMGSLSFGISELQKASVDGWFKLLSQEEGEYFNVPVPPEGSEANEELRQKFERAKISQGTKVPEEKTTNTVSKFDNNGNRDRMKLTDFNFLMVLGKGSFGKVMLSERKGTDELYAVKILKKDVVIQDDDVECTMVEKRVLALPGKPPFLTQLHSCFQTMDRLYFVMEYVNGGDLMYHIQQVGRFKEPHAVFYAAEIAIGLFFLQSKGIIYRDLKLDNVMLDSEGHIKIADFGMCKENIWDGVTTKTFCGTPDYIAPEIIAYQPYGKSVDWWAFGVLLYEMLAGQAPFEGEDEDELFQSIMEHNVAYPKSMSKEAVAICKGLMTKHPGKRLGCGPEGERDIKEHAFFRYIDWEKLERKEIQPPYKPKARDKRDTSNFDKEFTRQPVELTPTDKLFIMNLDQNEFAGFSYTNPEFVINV

human recombinant PKC-βI = human recombinant PKC-βI (Homo sapiens, UniProt P05771); experiment: ITC in vitro kinase assay with dot blot of the kinase reaction; assay type: biochemical

CC[C@H](C)[C@H](NC(=O)[C@H](CCCCN)NC(=O)[C@H](CCC(N)=O)NC(=O)[C@@H](NC(=O)[C@H](CCCCN)NC(=O)[C@H](CC(C)C)NC(=O)[C@@H](N)CCCCN)[C@@H](C)OP(=O)(O)O)C(=O)N[C@@H](Cc1ccc(O)cc1)C(=O)N[C@@H](Cc1ccccc1)C(=O)O [pNox1 peptide, KLKT*QKIYF] (H-KLK[pT]QKIYF-OH; N-terminus and C-terminus assumed)
Stoichiometry of the interaction with NoxA1 AD peptide ([1]; n=3): 0.86±0.06 | Kd ([1]; pH 7.4, n=3 independent experiments, ± standard deviation, read-out: Affinity (Kd) for the interaction with NoxA1 AD peptide): 1.5 ± 0.3 µM | Inhibition of PKC-βI by reaction product (reduction in heat in subsequent reactions) (human recombinant PKC-βI; ITC, subsequent injections): product inhibition

KLKTQKIYF [Nox1 peptide, KLKTQKIYF]
Substrate for PKC-βI (heat generated by phosphorylation of the peptide) (human recombinant PKC-βI; ITC single injection method, 1 mM peptide, 25° C.): is a substrate for PKC-βI | Phosphorylation of the peptide in the kinase reaction, dot blot with p-STY antibody (human recombinant PKC-βI; dot blot of kinase reaction mixture): confirms phosphorylation

Reference: patent publication US9951102B2, “Peptide inhibitor of Nox1 NADPH oxidase” (University of Iowa Research Foundation, priority 2014, dated 2018)
